Assay: general procedure: solution-phase peptide synthesis; 1-(3-dimethylaminopropyl)-3-ethylcarbodiimide hydrochloride / N-hydroxysuccinimi
Details: trifluoroacetate; for conjugation yield: conjugation step

Substance | conjugation yield [%] | step yield (late stage modification step) [%] | also measured
N-(tert-butoxycarbonyl)glycylglycyl-L-phenylalanyl-N-(4-{[(1S,9S)-9-ethyl-5-fluoro-9-hydroxy-4-methyl-10,13-dioxo-2,3,9,10,13,15-hexahydro-1H,12H-benzo[de]pyrano[3′,4′:6,7]indolizino[1,2-b]quinolin-1-yl]amino}-4-oxobutyl)glycinamide | 73 |  | 
N-[(9H-fluoren-9-ylmethoxy)carbonyl]glycylglycyl-N-(4-{[(1S,9S)-9-ethyl-5-fluoro-9-hydroxy-4-methyl-10,13-dioxo-2,3,9,10,13,15-hexahydro-1H,12H-benzo[de]pyrano[3′,4′:6,7]indolizino[1,2-b]quinolin-1-yl]amino}-4-oxobutyl)-L-phenylalaninamide | 40 |  | 
N^2-[6-(2,5-dioxo-2,5-dihydro-1H-pyrrol-1-yl)hexanoyl]-L-lysylglycylglycyl-L-phenylalanyl-N-[(1S,9S)-9-ethyl-5-fluoro-9-hydroxy-4-methyl-10,13-dioxo-2,3,9,10,13,15-hexahydro-1H,12H-benzo[de]pyrano[3′,4′:6,7]indolidino[1,2-b]quinolin-1-yl]glycineamide trifluoroacetate |  | 78 | 
N^6-(tert-butoxycarbonyl)-L-lysylglycylglycyl-L-phenylalanyl-N-[(1S,9S)-9-ethyl-5-fluoro-9-hydroxy-4-methyl-10,13-dioxo-2,3,9,10,13,15-hexahydro-1H,12H-benzo[de]pyrano[3′,4′:6,7]indolizino[1,2-b]quinolin-1-yl]glycinamide |  | 71 | 
N^6-(tert-butoxycarbonyl)-N^2-[6-(2,5-dioxo-2,5-dihydro-1H-pyrrol-1-yl)hexanoyl]-L-lysylglycylglycyl-L-phenylalanyl-N-[(1S,9S)-9-ethyl-5-fluoro-9-hydroxy-4-methyl-10,13-dioxo-2,3,9,10,13,15-hexahydro-1H,12H-benzo[de]pyrano[3′,4′:6,7]indolizino[1,2-b]quinolin-1-yl]glycinamide |  | 21 | 
N^6-(tert-butoxycarbonyl)-N^2-[(9H-fluoren-9-ylmethoxy)carbonyl]-L-lysylglycylglycyl-L-phenylalanyl-N-[(1S,9S)-9-ethyl-5-fluoro-9-hydroxy-4-methyl-10,13-dioxo-2,3,9,10,13,15-hexahydro-1H,12H-benzo[de]pyrano[3′,4′:6,7]indolizino[1,2-b]quinolin-1-yl]glycinamide |  |  | step yield (coupling step): 98%
